# Assay results published in article PMC3401373.
# The chains behind the UniProt entries cited, without tags or fusion partners.
# UniProt Q93009: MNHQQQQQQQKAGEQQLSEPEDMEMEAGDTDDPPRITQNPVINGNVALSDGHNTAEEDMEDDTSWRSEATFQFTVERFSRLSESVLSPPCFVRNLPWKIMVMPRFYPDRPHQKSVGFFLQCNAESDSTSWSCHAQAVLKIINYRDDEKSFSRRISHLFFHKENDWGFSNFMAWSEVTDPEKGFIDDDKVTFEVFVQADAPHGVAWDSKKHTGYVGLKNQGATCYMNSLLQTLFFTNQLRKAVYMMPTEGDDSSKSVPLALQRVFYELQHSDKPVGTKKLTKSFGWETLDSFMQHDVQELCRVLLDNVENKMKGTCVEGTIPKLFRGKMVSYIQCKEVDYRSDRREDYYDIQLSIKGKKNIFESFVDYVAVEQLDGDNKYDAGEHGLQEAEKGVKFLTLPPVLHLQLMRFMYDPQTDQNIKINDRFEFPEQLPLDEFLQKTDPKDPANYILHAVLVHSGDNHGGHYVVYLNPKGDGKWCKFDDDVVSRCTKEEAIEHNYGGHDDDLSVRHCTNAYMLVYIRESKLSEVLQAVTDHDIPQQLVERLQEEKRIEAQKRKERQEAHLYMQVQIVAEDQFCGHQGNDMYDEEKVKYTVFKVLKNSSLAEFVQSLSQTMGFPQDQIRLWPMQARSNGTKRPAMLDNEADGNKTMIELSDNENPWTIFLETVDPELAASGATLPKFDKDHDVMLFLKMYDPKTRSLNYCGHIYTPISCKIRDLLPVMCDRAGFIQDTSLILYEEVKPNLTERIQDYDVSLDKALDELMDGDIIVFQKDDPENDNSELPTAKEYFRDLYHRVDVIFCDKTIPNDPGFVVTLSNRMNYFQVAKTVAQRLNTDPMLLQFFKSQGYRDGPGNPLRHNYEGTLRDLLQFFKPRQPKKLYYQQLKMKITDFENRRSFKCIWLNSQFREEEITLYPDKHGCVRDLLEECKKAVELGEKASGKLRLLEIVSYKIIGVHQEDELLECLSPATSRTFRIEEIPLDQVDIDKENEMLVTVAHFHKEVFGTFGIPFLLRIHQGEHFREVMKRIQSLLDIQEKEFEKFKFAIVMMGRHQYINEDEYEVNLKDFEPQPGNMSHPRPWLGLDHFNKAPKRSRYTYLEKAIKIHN
# No constants are given. Whether binding was seen depends on the method and setting. In cells and extracts the contact can be indirect. Some binding calls cover weakened binding; strength is not graded here.
# B1: PPM1G expressed in AG06173 cells (enzyme, UniProt O15355 1-546)
# chain: MGAYLSQPNTVKCSGDGVGAPRLPLPYGFSAMQGWRVSMEDAHNCIPELDSETAMFSVYDGHGGEEVALYCAKYLPDIIKDQKAYKEGKLQKALEDAFLAIDAKLTTEEVIKELAQIAGRPTEDEDEKEKVADEDDVDNEEAALLHEEATMTIEELLTRYGQNCHKGPPHSKSGGGTGEEPGSQGLNGEAGPEDSTRETPSQENGPTAKAYTGFSSNSERGTEAGQVGEPGIPTGEAGPSCSSASDKLPRVAKSKFFEDSEDESDEAEEEEEDSEECSEEEDGYSSEEAENEEDEDDTEEAEEDDEEEEEEMMVPGMEGKEEPGSDSGTTAVVALIRGKQLIVANAGDSRCVVSEAGKALDMSYDHKPEDEVELARIKNAGGKVTMDGRVNGGLNLSRAIGDHFYKRNKNLPPEEQMISALPDIKVLTLTDDHEFMVIACDGIWNVMSSQEVVDFIQSKISQRDENGELRLLSSIVEELLDQCLAPDTSGDGTGCDNMTCIIICFKPRNTAELQPESGKRKLEEVLSTEGAEENGNSDKKKKAKRD
# Target: Flag-tagged USP7S expressed in AG06173 cells (human) (UniProt Q93009)
# Assay: co-IP; AG06173 cells co-transfected with USP7S and PPM1G expression plasmids (0.5 pmol each, 24 hr); whole cell extract (500 μg); Flag-tagged USP7S pulled down with Flag-agarose beads (magnetic beads as mock control); western blot with USP7S and PPM1G antibodies
binder,measurement,value
B1,binding,binds
